The list does not hold the whole screen: it is rich in T/C values a quarter to a half above the control, in often repeated tests (any T/C) and in doses without a T/C. Further doses and runs are listed elsewhere. T/C is the treated group as % of the vehicle group. Some entries give survivors of the animals treated and no T/C: the source files T/C as zero there, which appears to mark a toxic dose or a test without result, not a measured value. Counts of survivors are from the toxicity check (mostly the fifth day) where no day follows; animals may have died later. Schedules are NCI's codes, read here as Q, the interval in days (D) or hours (H), X, the number of doses. Some molecules as drawn cover several salts, stereoisomers or complexes of the source; a dose is that of the sample tested. For survival time, this PubChem deposit counts one and a half times the control or more as active, and values a quarter to a half above the control carry no call in these data; other NCI protocols may use other cut-offs. Some T/C values carry the count of animals alive at the toxicity check (mostly the fifth day); without a count, all were alive then. Some doses were run more than once; the results are listed from low to high.
Test system: CD2F1 mice, L1210 leukemia ip, survival T/C
Assay: NCI In Vivo Anticancer Drug Screen. Data for tumor model L1210 Leukemia (intraperitoneal) in CD2F1 (CDF1) mice
Conditions: higher T/C = longer survival
Summary of the method: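 Implant tumor; dose compound or vehicle; measure endpoint in both groups; report treated divided by control.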

[1] = T/C endpoint: mean survival time, dose: 200.0 mg/kg/injection, schedule: Q01DX005 (ip), vehicle: saline
[2] = T/C endpoint: mean survival time, dose: 400.0 mg/kg/injection, schedule: Q01DX009 (ip), vehicle: saline with Tween-80
[3] = T/C endpoint: mean survival time, dose: 200.0 mg/kg/injection, schedule: Q01DX009 (ip), vehicle: saline with Tween-80

`Nc1nc2n[nH]nc2c(=O)[nH]1` was tested, and the T/C (T/C endpoint: mean survival time, dose: 3.13 mg/kg/injection, schedule: Q01DX009 (ip), vehicle: saline with Tween-80) was 134 % of control, the T/C (T/C endpoint: mean survival time, dose: 6.25 mg/kg/injection, schedule: Q01DX009 (ip), vehicle: saline with Tween-80) was 131 and 142 % of control and the T/C (T/C endpoint: mean survival time, dose: 12.5 mg/kg/injection, schedule: Q01DX009 (ip), vehicle: saline with Tween-80) was 140 % of control. The T/C (T/C endpoint: mean survival time, dose: 22.0 mg/kg/injection, schedule: Q01DX009 (ip), vehicle: saline with Tween-80) was 137 % of control, the T/C (T/C endpoint: mean survival time, dose: 25.0 mg/kg/injection, schedule: Q01DX005 (ip), vehicle: saline) was 126, 136, 138, 143, 158 % of control and the T/C (T/C endpoint: mean survival time, dose: 25.0 mg/kg/injection, schedule: Q01DX009 (ip), vehicle: saline with Tween-80) was 148 % of control. The T/C (T/C endpoint: mean survival time, dose: 33.0 mg/kg/injection, schedule: Q01DX009 (ip), vehicle: saline with Tween-80) was 140 % of control, the T/C (T/C endpoint: mean survival time, dose: 50.0 mg/kg/injection, schedule: Q01DX005 (ip), vehicle: saline) was 131, 135, 137, 153 [5 of 6 alive], 162 % of control and the T/C (T/C endpoint: mean survival time, dose: 50.0 mg/kg/injection, schedule: Q01DX007 (ip), vehicle: other) was 146 % of control. The T/C (T/C endpoint: mean survival time, dose: 50.0 mg/kg/injection, schedule: Q01DX009 (ip), vehicle: saline with Tween-80) was 140 % of control, the T/C (T/C endpoint: mean survival time, dose: 100.0 mg/kg/injection, schedule: Q01DX005 (ip), vehicle: saline) was 136, 139, 143, 162, 184 % of control and the T/C (T/C endpoint: mean survival time, dose: 100.0 mg/kg/injection, schedule: Q01DX007 (ip), vehicle: other) was 146 % of control. The T/C (T/C endpoint: mean survival time, dose: 100.0 mg/kg/injection, schedule: Q01DX009 (ip), vehicle: saline sonified) was 132 % of control, the T/C (T/C endpoint: mean survival time, dose: 100.0 mg/kg/injection, schedule: Q03DX003 (ip), vehicle: other) was 125 % of control and the T/C [1] was 143, 148, 150, 167 % of control. For the same compound, the survivor count [1] was 3 of 6, the survivor count (T/C endpoint: mean survival time, dose: 400.0 mg/kg/injection, schedule: Q01DX009 (ip), vehicle: saline sonified) was 1 of 6 and the survivor count [2] was 2 of 6. For the same compound, the T/C (T/C endpoint: median survival time, dose: 50.0 mg/kg/injection, schedule: Q01DX009 (ip), vehicle: saline) was 144 % of control, the T/C (T/C endpoint: median survival time, dose: 100.0 mg/kg/injection, schedule: Q01DX009 (ip), vehicle: saline) was 144 % of control and the T/C (T/C endpoint: median survival time, dose: 200.0 mg/kg/injection, schedule: Q01DX009 (ip), vehicle: saline) was 144 % of control. The survivor count (T/C endpoint: median survival time, dose: 400.0 mg/kg/injection, schedule: Q01DX009 (ip), vehicle: saline) was 3 of 6.

`C[Si](C)(C)O/C=C1\CCCCC1=O` was tested, and the survivor count [3] was 3 of 6.

`CC[P+](C)(CC)c1cccc(OC(=O)NC)c1` was tested, and the survivor count (T/C endpoint: mean survival time, dose: 0.4 mg/kg/injection, schedule: Q01DX001 (ip), vehicle: saline) was 1 of 6 and the survivor count (T/C endpoint: mean survival time, dose: 0.8 mg/kg/injection, schedule: Q01DX001 (ip), vehicle: saline) was 0 of 6.

In the case of `CNC(C)COc1ccccc1` (stereo not given), the survivor count (T/C endpoint: mean survival time, dose: 200.0 mg/kg/injection, schedule: Q04DX003 (ip), vehicle: saline with Tween-80) is reported as 0 of 6 and the survivor count (T/C endpoint: mean survival time, dose: 400.0 mg/kg/injection, schedule: Q04DX003 (ip), vehicle: saline with Tween-80) is reported as 0 of 6.

For `O=S(Nc1ccccc1)Nc1ccccc1`, the survivor count [3] was 3 of 6 and the survivor count [2] was 2 of 6.

In the case of `Oc1c(C(c2ccccc2)N2CCCCC2)ccc2ccccc12` (stereo not given), the survivor count [2] is reported as 2 of 6.
